In patent US20170088620A1:
Results are given in words; binding and its absence hold for the method and conditions named. Some entries that bind do so weakly or less than the wild type.

T1: human ASGR-1 carbohydrate binding domain (CBD) (148-291) (human) (UniProt P07306)
T1 sequence: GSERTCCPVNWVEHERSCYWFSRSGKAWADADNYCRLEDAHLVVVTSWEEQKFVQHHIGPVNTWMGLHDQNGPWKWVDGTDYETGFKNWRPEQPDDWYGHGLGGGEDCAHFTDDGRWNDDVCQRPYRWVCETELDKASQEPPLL


Target: T1, human ASGR-1 carbohydrate binding domain (CBD) (148-291) (human)
Assay: X-ray co-crystal structure; complex purified by size exclusion chromatography

| Binder | binding |
| --- | --- |
| 4A2 Fab (Fab, V domains shown) VH: QVQLVQSGTEVKKPGASVKVSCKASGYTFTNYDINWVRQATGQGLEWMGWMHPNSGNTGYAQKFQGRVTLTRDTSISTAYMELSSLRSEDTAVYYCASSSGWYYFDYWGQGTLVTVSS VL: DIVMTQSPDSLAVSLGERATINCKSSQSILHSSNNNNYLAWFQQKPGQPPKLLLYWASTRESGVPDRFSGSGSGTDFTLTISSLQPEDVAVYYCQQYYNTPVTFGPGTKVGIKR | binds |
| 4H6 Fab (Fab, V domains shown) VH: QVQLVQSGAEVKKPGASVKVSCKASGYTFTDYYLHWVRQAPGQGLEWMGWIHPNSGGTNYAQKFQGRVTMTRDTSISTAYMGLSSLRSDDTAVYYCARDGTSSFDYWGQGTLVTVSS VL: DIQMTQSPSSVSASVGDRVTITCRASQGISRWLAWYQQKPGKAPKLLIYGASSLQSGVPSRFSGSGSGTDFTLTISSLQPEDFAIYYCQQANSFPFTFGPGTKVDIKG | binds |
| 72G9 Fab (Fab, V domains shown) VH: EVQLVESGGGLVKPGGSLRLSCAASGFTFSSYSMNWVRQAPGKGLEWVSSISGSSSYIYYADSVKGRFTISRDNAKNSLYLQMNSLRAEDTAVYFCARGGSRGFDPWGQGTLVTVSS VL: DIQMTQSPSSLSASVGDRVTITCRASQSITSYLNWYQQKPGKAPKLLIYTASSLQSGVPSRFSGSGSGTDFTLTISSLQPEDFATYYCQQSHSFPFTFGPGTKVDIKR | binds |

Next, values leading:

| binding | Binder |
| --- | --- |
| binds | 194C10 Fab (Fab, V domains shown) VH: QVQLQQWGAGLLKPSETLSLTCAVSGGSFRYYYWSWIRQPPGKGLEWFGEINHAGSTNYNPSLKSRVTISIDTSKNQFSLKLRSVTAADTAVYYCARDYGAFDIWGQGTMVTVSS VL: EIVLTQSPGTLSLSPGERATLSCRASPSVNSGYLAWYQQKPGQTPRLLIFGASSRATGIPDRFSASGSGADFTLTISRLEPEDFAVYFCQQYESSPWTFGQGTKVEIKR |
| binds | 194A4 Fab (Fab, V domains shown) VH: QVQLVQSGTEVKKPGASLKVSCKASGYTFTVYYLNWVRQAPGQGLEWMGWINPNSGGTNYAQKFQGRVTMTRDTSISTAYMELSRLRSDDTAVYYCARGYDILTGWGQGTLVTVSS VL: EIVLTQSPGTLSLSPGERATLSCRASRGVSNIYLAWYQQKPGQAPRLLIYGASNRATGIPDRFSGSGSGTDFTLTISRLEPEDFAVYYCQHNDYSMFTFGPGTKVDIKR |
